The exact form of at least one protein or probe is not confirmed. At least one verdict rests on a figure or table, not on a statement of the authors.
Columns and labels:
Assay in all cases: EMSA
Settings in all cases: dimerization lost, one- and two-site occupancy; 10 mM sodium phosphate pH 6.0, 100 mM NaCl, 5 mM EDTA, on ice 30 min (1 h for 32P titrations); 9 nM DNA for Kd, 2 uM DNA for SYBR Green EMSA; recombinant protein; residues 71-184; protein details: 6xHis
[1] = target: SOX9 D-HMG A76 mutant (Homo sapiens) (UniProt P48436)
[2] = target: SOX9 D-HMG I73 mutant (Homo sapiens) (UniProt P48436)
[3] = target: SOX9 D-HMG L81 mutant (Homo sapiens) (UniProt P48436)
[4] = target: SOX9 D-HMG V77 mutant (Homo sapiens) (UniProt P48436)
[5] = target: SOX9 D-HMG V80 mutant (Homo sapiens) (UniProt P48436)
[6] = target: SOX9 D-HMG Y84 mutant (Homo sapiens) (UniProt P48436)

Protein sequences, listed by entry. Tags and fused reporters are not part of them. Residues count along the entry.
UniProt P48436, 71-184, stated change not applied: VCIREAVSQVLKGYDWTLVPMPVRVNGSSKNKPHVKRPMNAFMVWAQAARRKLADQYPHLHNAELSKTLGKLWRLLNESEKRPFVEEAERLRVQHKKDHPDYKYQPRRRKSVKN

Measured: binding result

GGGATCCTACACAAAGCCGGCTTTGTGTAGGATCCC (double strand) [CC36]
binds: all assays above
